Experimental findings from patent US20120100173A1 are described below.

Sequences of proteins named here, by UniProt entry; tags and fusion partners are left off. Residues count along the entry.
UniProt P17879, residues 2-642: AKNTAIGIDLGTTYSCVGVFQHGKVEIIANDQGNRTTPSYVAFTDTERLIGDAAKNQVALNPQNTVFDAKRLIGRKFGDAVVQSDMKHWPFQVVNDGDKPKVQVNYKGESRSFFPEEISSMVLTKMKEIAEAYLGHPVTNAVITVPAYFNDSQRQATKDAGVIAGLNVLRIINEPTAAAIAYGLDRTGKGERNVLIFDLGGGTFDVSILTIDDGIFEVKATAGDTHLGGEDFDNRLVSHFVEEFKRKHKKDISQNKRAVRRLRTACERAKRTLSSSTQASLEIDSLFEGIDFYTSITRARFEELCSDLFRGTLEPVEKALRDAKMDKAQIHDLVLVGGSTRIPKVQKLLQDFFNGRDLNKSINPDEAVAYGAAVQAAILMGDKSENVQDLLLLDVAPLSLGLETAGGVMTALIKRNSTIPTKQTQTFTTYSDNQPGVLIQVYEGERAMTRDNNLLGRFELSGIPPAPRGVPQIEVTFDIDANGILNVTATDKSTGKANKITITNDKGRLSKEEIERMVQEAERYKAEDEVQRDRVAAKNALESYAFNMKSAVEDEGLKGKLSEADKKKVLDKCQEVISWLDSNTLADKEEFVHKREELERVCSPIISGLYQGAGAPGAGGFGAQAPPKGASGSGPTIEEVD
UniProt Q61699, residues 2-858: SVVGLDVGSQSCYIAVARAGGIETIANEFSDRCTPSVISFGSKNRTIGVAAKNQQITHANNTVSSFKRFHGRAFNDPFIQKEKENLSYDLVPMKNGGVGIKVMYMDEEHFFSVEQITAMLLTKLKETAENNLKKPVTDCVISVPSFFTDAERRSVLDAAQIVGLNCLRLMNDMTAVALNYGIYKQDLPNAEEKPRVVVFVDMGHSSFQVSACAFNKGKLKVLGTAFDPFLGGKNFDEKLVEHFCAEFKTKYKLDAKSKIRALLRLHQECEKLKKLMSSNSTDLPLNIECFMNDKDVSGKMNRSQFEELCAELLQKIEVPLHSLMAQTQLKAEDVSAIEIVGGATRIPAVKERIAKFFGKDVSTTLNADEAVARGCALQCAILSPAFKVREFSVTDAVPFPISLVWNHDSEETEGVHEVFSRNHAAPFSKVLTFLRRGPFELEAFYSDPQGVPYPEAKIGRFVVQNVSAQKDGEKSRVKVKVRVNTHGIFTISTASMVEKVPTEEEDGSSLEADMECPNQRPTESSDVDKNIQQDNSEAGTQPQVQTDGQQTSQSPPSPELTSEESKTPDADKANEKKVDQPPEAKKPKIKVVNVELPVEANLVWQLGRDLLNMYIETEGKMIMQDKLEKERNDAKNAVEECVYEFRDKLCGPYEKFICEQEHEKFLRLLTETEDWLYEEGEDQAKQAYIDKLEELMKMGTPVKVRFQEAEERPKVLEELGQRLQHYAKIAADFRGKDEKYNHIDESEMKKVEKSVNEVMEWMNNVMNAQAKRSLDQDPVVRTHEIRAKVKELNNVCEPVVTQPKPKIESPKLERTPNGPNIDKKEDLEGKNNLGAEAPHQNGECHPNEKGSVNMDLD

These are yes or no findings as the source states them, for the method shown. Some entries that bind do so weakly or less than the wild type.

Assay [1] has as its target HSP70 (mouse, endogenous, from organ tissue of tumor bearing mice or Meth A fibrosarcoma) (mouse) (UniProt P17879). As to the kind of experiment: affinity chromatography of mouse organ homogenate, Western blot of eluate.
Assay [2] has the same target. The assay is described as follows: affinity chromatography of Meth A homogenate, LC/MS/MS of gel bands of eluate.
The target is the same in assay [3]. The assay is described as follows: affinity chromatography of tissue homogenate, SDS-PAGE of eluate.
For assay [4] the target is unchanged. As to the kind of experiment: affinity chromatography of gp96-depleted Meth A homogenate, SDS-PAGE of eluate.
The target in assay [5] is HSP40 (mouse, endogenous) (mouse) (UniProt Q9QYJ3). The assay is described as follows: affinity chromatography of mouse tissue homogenate, Western blot of eluate; co-isolated, direct or indirect not resolved.
Assay [6] addresses HSP70 (mouse, endogenous, from organ tissue of tumor bearing mice or Meth A fibrosarcoma) (mouse) (UniProt P17879). The assay is described as follows: affinity chromatography of mouse organ homogenate, SDS-PAGE and Western blot of eluate.
For assay [7] the target is unchanged. The assay is described as follows: affinity chromatography of mouse organ homogenate, LC/MS/MS of gel bands of eluate.
In assay [8] the target is HSP90 (mouse, endogenous, isoform not stated) (mouse) (UniProt Q71LX8). The description is as above.
Assay [9] addresses HSP70 (mouse, endogenous, from organ tissue of tumor bearing mice or Meth A fibrosarcoma) (mouse) (UniProt P17879). The assay is described as follows: affinity chromatography of mouse organ homogenate, SDS-PAGE of eluate.
The target in assay [10] is HSP90 (mouse, endogenous, isoform not stated) (mouse) (UniProt Q71LX8). The assay is described as above.
Assay [11] has the same target. As to the kind of experiment: affinity chromatography of mouse organ homogenate, SDS-PAGE of fractions.
The target is the same in assay [12]. As to the kind of experiment: affinity chromatography of mouse tissue homogenate, NaCl gradient elution, SDS-PAGE.
For assay [13], the target named is HSP70 (mouse, endogenous, from organ tissue of tumor bearing mice or Meth A fibrosarcoma) (mouse) (UniProt P17879). As to the kind of experiment: glutaraldehyde cross-linking of the HOP TPR1 eluate, SDS-PAGE gel shift and Western blot; same cross-linked band, direct partner not resolved.
Assay [14] has the same target. The assay is described as follows: glutaraldehyde cross-linking of the HOP TPR1 eluate, SDS-PAGE gel shift and Western blot.

For the substance “HOP TPR1 (amino acid residues 1 to 118 of human HOP) with C-terminal histidine tag (from UniProt P31948 1-118)”, the binding result in [1], in assay [2], in assay [3], in assay [4], in assay [5] and in assay [6] was “binds” each time.
Take “HOP TPR1/2a (amino acid residues 1 to 352 of human HOP) with C-terminal histidine tag (from UniProt P31948 1-352)”: the binding entry in [7], in assay [8], in assay [9] and in assay [10] was “binds” throughout.
For “HOP TPR2a (amino acid residues 223 to 352 of human HOP) with C-terminal histidine tag (from UniProt P31948 223-352)”, the binding result in assay [11] and in [12] was “binds” throughout.
“HSP40 (mouse, endogenous) (from UniProt Q9QYJ3 1-340)”: the binding result in assay [13] is given as “binds”.
In the case of “HSP110 (mouse, endogenous) (from UniProt Q61699 2-858)”, in assay [14], the binding result is given as “binds”.
